This is an account of results in patent US6355627B1, “Branched cyclodextrin clathrate compound of hinokitiols and composition containing the same” (Takasago International Corporation, priority 1999, dated 2002).

Where “and” joins values, the source holds several entries; their conditions need not be identical. Equal entries are not always repeated.

The series is described as follows: Evaluation of corrosion of stainless test piece in aqueous solution. Particulars: 0.1% aqueous solution (1.0% for the clathrate), stirred.

In the case of `CC(C)c1cccc(=O)c([O-])c1.[Na+]` [sodium salt of hinokitiol], the “Corrosion rate at 90° C., Sus 304” value (90° C.) was 0.30 mm/year and 0.30 mm mm/year. Moreover, the “Corrosion rate at 25° C., Sus 304” value (room temperature (25° C.)) is 0.10 mm/year and 0.10 mm mm/year.
